Measured values reported in PMC8688437.
No constants are given. Whether binding was seen depends on the method and setting. Binding seen in cells or lysates may run through a third protein. Some results given as binding are weak or reduced against the parent protein; the word gives no strength. For some assays here: Where a sequence is shown, tags or fusion partners need not be part of it.

Chains of the proteins cited; added tags and fusions are not shown.
UniProt P01106: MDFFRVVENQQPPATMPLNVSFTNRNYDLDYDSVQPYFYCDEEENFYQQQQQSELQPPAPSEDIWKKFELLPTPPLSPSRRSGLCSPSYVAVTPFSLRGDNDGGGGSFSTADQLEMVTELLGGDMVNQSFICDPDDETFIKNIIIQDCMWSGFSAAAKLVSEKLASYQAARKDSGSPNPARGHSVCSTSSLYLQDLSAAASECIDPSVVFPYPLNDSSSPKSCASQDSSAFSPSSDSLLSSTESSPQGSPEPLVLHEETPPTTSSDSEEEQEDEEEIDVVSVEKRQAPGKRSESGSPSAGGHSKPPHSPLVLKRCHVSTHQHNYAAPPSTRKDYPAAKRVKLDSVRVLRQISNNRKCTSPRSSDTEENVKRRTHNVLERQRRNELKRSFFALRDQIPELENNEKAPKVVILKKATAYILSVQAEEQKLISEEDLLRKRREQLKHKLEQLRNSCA

Assays:
[1] = molecular target: T1, endogenous MYEOV (human (endogenous in PANC-1)) (UniProt Q96EZ4); assay: co-IP; endogenous proteins from PANC-1 cell lysate; lysis buffer 50 mM Tris-Cl pH 7.4, 150 mM NaCl, 0.5% Triton X-100, 1 mM EDTA; 4 °C; protein A/G agarose beads
T1 sequence: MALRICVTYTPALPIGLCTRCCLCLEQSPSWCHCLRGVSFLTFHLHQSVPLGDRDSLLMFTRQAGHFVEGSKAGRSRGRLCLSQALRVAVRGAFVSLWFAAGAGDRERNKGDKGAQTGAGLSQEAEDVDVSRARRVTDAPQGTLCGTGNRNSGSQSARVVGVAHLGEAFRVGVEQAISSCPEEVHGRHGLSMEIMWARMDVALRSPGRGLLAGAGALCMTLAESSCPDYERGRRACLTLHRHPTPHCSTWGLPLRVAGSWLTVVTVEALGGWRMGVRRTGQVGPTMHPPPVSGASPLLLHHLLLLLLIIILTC

[2] = molecular target: T2, FLAG-tagged MYEOV (human) (UniProt Q96EZ4); assay: co-IP; IP of FLAG-MYEOV from lysates of transfected 293 T cells, Western blot for HA-MYC; lysis buffer 50 mM Tris-Cl pH 7.4, 150 mM NaCl, 0.5% Triton X-100, 1 mM EDTA; 4 °C; protein A/G agarose beads
T2 sequence: T1 sequence

| binding [1] | binding [2] | Substance |
| --- | --- | --- |
| binds |  | endogenous MYC (from UniProt P01106 1-454) |
|  | binds | HA-tagged MYC (from UniProt P01106 1-454) |
